The supplement of paper PMC10849652
Some of the results follow.

By UniProt entry, the sequences of proteins in these tests, tags left out. Where a name states a change or a piece, a line headed by the entry shows the natural chain unless it says otherwise.
UniProt P55265: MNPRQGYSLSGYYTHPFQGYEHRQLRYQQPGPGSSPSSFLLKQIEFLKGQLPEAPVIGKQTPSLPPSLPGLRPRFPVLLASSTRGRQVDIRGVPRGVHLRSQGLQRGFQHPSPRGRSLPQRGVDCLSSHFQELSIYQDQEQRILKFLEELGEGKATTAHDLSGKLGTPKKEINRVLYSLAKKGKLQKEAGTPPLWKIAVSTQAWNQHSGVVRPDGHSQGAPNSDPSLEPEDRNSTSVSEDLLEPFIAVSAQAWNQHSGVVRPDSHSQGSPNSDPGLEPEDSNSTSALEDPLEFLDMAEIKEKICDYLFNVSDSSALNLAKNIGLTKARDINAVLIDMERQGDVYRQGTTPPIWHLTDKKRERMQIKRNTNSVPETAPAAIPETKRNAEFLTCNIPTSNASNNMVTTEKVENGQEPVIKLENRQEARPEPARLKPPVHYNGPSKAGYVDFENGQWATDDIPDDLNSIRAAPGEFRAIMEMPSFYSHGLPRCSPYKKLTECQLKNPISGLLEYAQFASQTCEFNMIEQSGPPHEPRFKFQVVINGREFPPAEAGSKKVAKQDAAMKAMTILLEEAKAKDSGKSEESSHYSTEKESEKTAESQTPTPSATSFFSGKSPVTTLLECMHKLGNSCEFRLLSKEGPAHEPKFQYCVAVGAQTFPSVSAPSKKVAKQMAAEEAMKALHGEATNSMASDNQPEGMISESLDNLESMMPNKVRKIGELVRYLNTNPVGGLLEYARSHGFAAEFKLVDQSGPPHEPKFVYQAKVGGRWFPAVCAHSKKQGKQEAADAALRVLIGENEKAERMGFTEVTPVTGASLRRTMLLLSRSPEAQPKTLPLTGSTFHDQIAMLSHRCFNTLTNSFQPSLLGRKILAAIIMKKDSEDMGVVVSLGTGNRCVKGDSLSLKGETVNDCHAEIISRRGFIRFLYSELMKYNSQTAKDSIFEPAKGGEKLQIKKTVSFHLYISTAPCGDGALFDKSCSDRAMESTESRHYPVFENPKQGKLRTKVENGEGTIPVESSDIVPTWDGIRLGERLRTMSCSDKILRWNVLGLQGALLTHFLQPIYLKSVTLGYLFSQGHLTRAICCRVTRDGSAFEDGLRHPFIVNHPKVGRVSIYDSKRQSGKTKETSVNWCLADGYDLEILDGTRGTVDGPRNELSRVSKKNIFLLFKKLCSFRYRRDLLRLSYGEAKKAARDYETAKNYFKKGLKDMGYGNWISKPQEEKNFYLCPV
UniProt Q96IU4: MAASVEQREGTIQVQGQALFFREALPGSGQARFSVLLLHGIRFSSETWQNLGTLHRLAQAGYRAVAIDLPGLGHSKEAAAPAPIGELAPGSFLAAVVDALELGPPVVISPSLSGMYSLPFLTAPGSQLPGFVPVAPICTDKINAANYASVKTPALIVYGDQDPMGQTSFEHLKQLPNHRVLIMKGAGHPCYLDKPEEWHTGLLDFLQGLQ
UniProt Q9NUJ1: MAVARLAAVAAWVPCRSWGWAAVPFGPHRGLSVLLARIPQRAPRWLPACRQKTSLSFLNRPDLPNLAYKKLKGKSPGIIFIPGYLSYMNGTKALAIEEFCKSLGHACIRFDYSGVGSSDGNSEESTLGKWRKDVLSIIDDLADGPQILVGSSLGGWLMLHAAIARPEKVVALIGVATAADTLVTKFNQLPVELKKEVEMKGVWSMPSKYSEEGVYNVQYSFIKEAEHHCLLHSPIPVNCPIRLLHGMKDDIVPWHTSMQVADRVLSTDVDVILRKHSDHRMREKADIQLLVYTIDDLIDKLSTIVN
UniProt Q99798: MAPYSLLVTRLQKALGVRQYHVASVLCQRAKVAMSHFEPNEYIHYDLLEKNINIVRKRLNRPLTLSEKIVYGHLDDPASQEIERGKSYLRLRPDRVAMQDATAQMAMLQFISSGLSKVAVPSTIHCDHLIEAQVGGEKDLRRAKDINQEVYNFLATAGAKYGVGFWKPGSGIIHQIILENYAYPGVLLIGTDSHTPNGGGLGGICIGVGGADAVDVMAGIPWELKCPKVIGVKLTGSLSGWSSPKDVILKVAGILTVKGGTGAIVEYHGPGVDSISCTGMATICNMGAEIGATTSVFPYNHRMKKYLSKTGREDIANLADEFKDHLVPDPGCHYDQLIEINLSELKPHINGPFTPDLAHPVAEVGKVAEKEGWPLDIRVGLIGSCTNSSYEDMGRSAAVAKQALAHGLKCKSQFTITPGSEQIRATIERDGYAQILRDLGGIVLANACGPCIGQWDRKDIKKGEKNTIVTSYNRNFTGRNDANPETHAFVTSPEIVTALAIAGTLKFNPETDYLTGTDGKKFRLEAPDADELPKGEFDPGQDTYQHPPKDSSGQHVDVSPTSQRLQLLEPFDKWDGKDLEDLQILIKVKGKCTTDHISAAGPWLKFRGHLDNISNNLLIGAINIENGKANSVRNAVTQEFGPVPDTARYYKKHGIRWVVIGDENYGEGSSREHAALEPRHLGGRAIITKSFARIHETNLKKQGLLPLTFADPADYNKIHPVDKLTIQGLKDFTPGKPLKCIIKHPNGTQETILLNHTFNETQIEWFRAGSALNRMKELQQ
UniProt O14734: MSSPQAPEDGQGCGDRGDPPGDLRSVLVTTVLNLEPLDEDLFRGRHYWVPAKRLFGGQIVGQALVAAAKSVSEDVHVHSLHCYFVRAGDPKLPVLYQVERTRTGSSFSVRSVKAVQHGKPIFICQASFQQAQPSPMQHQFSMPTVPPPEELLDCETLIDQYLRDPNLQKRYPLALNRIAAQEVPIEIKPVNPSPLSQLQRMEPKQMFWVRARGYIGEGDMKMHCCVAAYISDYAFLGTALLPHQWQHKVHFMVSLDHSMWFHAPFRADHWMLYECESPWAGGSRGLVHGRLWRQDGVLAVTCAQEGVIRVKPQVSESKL
UniProt Q13443: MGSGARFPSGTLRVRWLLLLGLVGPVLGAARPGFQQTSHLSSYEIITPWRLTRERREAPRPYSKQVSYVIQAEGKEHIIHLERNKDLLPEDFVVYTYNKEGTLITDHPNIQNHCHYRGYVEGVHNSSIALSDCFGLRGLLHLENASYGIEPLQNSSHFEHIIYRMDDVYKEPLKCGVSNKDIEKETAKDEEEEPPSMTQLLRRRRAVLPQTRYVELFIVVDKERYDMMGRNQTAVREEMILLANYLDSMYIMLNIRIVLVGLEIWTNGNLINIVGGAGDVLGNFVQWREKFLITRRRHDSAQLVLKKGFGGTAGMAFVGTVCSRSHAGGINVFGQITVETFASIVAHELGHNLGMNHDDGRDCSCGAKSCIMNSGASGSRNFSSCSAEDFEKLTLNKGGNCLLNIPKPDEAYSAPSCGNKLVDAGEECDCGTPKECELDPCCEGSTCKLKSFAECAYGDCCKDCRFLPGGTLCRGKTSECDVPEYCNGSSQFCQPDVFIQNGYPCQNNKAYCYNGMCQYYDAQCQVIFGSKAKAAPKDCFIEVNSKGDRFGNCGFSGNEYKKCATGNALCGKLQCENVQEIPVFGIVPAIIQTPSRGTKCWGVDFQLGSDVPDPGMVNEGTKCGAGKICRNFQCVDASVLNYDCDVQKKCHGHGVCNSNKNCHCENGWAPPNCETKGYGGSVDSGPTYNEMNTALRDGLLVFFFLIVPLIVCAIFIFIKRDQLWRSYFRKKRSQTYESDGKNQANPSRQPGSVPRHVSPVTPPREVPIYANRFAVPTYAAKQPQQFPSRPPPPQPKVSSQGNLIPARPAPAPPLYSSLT
UniProt O14639: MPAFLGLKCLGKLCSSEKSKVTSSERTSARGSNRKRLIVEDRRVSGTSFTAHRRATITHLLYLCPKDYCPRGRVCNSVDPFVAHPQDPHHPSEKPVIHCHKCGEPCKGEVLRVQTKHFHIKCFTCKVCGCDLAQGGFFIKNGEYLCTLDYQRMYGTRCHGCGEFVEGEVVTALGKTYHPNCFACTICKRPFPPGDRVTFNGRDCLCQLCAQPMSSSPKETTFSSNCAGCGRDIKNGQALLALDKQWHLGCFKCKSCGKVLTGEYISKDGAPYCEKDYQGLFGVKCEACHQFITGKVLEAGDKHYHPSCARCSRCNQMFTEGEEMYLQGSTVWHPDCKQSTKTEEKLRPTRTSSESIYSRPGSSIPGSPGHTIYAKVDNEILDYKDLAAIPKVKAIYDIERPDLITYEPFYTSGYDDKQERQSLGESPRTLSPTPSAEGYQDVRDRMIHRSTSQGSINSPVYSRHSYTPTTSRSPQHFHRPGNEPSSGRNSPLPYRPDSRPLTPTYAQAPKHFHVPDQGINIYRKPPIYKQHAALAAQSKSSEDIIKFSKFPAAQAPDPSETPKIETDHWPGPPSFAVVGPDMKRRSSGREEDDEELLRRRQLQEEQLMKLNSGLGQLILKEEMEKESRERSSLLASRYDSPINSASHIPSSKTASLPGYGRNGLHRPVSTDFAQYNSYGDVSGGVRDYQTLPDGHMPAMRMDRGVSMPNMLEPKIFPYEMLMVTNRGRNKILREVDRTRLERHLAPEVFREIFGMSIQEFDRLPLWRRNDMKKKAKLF
UniProt Q6UY14: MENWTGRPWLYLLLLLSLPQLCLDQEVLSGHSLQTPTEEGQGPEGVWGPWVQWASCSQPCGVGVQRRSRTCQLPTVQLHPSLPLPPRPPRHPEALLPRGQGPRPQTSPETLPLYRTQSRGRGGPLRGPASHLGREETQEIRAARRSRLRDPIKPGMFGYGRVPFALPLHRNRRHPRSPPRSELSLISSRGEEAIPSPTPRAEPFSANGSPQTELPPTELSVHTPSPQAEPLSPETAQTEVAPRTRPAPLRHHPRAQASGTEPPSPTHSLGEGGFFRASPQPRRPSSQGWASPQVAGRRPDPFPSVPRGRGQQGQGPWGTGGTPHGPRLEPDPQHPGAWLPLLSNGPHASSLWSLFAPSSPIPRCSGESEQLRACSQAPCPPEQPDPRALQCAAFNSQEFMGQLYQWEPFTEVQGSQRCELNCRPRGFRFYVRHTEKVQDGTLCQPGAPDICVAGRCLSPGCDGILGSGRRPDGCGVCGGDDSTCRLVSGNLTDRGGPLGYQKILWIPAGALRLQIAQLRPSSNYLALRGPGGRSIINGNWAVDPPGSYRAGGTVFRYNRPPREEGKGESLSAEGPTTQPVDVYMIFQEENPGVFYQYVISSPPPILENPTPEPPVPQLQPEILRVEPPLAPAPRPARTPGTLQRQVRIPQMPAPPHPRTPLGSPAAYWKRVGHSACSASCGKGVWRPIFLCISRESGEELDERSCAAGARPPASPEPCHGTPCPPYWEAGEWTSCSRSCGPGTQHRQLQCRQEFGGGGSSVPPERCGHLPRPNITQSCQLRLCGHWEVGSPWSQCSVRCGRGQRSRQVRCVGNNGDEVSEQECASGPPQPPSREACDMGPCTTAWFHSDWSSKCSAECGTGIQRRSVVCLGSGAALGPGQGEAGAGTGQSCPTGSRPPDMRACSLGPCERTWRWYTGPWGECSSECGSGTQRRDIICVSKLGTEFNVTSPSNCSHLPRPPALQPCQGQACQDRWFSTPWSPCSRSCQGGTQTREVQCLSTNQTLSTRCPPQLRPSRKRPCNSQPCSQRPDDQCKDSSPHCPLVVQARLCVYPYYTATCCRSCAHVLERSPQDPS
UniProt Q9UKU7: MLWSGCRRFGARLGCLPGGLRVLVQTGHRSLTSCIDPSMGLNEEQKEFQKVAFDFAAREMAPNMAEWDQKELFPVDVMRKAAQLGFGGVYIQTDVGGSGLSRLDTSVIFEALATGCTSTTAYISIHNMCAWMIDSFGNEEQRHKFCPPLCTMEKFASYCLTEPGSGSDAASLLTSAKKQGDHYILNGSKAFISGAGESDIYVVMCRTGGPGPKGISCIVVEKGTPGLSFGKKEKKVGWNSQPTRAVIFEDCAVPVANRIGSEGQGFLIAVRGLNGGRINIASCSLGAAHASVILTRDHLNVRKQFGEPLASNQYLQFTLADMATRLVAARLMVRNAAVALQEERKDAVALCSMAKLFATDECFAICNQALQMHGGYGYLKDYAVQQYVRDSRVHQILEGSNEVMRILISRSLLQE
UniProt P11117: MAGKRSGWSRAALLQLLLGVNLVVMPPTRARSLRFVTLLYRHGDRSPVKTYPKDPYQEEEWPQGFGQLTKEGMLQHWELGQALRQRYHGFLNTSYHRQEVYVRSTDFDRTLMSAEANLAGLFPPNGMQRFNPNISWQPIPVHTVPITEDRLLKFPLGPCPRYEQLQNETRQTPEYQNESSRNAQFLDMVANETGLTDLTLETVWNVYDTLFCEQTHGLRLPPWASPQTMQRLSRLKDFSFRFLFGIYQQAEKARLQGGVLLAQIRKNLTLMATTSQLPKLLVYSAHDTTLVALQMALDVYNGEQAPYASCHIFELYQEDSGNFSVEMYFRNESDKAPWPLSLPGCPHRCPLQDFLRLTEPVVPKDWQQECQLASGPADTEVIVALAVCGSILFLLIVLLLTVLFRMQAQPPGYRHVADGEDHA

Legend:
Test in all cases: log2 fold change, soluble protein after heating vs DMSO (PISA); higher = thermal stabilisation; K562 cells, 10 uM, 30 min; active = over 0.2 and 3.5 SD of the protein, either way, in both replicates (recomputed)
[1] = compound: Cc1ccc(NC(=O)c2ccc(CN3CC[C@H](N(C)C)C3)c(C(F)(F)F)c2)cc1Nc1nccc(-c2cncnc2)n1 [bafetinib]
Outline: (§1)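 K562 cells at 2×10^6 cells/mL were exposed to 10 μM compound for 30 min, then aliquots were heated for 3 min across 48°C-58°C, pooled, and extracted in PBS containing 0.5% NP-40 at 4°C. The supernatant after 21,000xg for 90 min was taken as soluble protein and measured by TMTpro 16plex LC-MS/MS with channel sums equalised. Thermal stability is reported relative to control samples, with values from duplicates. Fold changes are given on a log2 scale.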

[2] = compound: Cc1cccc(CC(=O)N2CCc3c2ccc(-c2cn(C)c4ncnc(N)c24)c3F)n1
Outline: as §1

[3] = compound: Cc1cn(-c2cc(NC(=O)c3ccc(C)c(Nc4nccc(-c5cccnc5)n4)c3)cc(C(F)(F)F)c2)cn1 [nilotinib]
Outline: as §1

[4] = compound: Cc1nc(Nc2n[nH]c3c2CN(C(=O)N[C@H](CN(C)C)c2ccccc2)C3(C)C)c2sccc2n1
Outline: as §1

[5] = compound: Cc1nc(Nc2ncc(C(=O)Nc3c(C)cccc3Cl)s2)cc(N2CCN(CCO)CC2)n1 [dasatinib]
Outline: as §1

[6] = compound: Cc1ncc(-c2ccnc(Nc3ccc(S(C)(=O)=O)cc3)n2)n1C(C)C
Outline: as §1

[7] = compound: Cn1cc(-c2ccc3c(c2)CCN3C(=O)Cc2cccc(C(F)(F)F)c2)c2c(N)ncnc21
Outline: as §1

[8] = compound: Cn1cc(-c2ccc3nnc(C(F)(F)c4ccc5ncccc5c4)n3n2)cn1
Outline: as §1

[9] = compound: Cn1cncc1[C@@](N)(c1ccc(Cl)cc1)c1ccc2c(c1)c(-c1cccc(Cl)c1)cc(=O)n2C [tipifarnib]
Outline: as §1

[10] = compound: FC(F)(F)c1ccc(/C=C/c2nc(COc3ccc(CCCCn4ccnn4)cc3)co2)cc1 [mubritinib]
Outline: as §1

[11] = compound: NC(=O)Nc1cc(-c2cccc(F)c2)sc1C(=O)N[C@H]1CCCNC1
Outline: as §1

[12] = compound: NC(=O)c1cnc(N[C@@H]2CCCC[C@@H]2N)nc1Nc1cccc(-n2nccn2)c1
Outline: as §1

[13] = compound: NC1(c2ccc(-c3nc4ccn5c(=O)[nH]nc5c4cc3-c3ccccc3)cc2)CCC1
Outline: as §1

[14] = compound: NCC(=O)Nc1ccc(-n2nc(C(F)(F)F)cc2-c2ccc3c(ccc4ccccc43)c2)cc1
Outline: as §1

[15] = compound: Nc1ccccc1NC(=O)c1ccc(CNC(=O)OCc2cccnc2)cc1 [entinostat]
Outline: as §1

[16] = compound: O=C(CCCCCCC(=O)Nc1ccccc1)NO [vorinostat]
Outline: as §1

[17] = compound: O=C(CCCCCCNC(=O)c1cnc(N(c2ccccc2)c2ccccc2Cl)nc1)NO [citarinostat]
Outline: as §1

[18] = compound: O=C(O)c1ccc2c(c1)nc(Nc1cccc(Cl)c1)c1ccncc12 [silmitasertib]
Outline: as §1

[19] = compound: O=C1NC(=O)C(c2cnc3ccccn23)=C1c1cn2c3c(cc(F)cc13)CN(C(=O)N1CCCCC1)CC2
Outline: as §1

[20] = compound: c1cc(OCCN2CCCCC2)cc(-c2n[nH]c3ccc(-c4nnc[nH]4)cc23)c1
Outline: as §1

| Target | log2 fold change [1] | log2 fold change [2] | log2 fold change [3] | log2 fold change [4] | log2 fold change [5] | log2 fold change [6] | log2 fold change [7] | log2 fold change [8] | log2 fold change [9] | log2 fold change [10] | log2 fold change [11] | log2 fold change [12] | log2 fold change [13] | log2 fold change [14] | log2 fold change [15] | log2 fold change [16] | log2 fold change [17] | log2 fold change [18] | log2 fold change [19] | log2 fold change [20] |
| --- | --- | --- | --- | --- | --- | --- | --- | --- | --- | --- | --- | --- | --- | --- | --- | --- | --- | --- | --- | --- |
| ADAR isoform 4 (UniProt P55265) | inactive: 0.368 | inactive: -0.059 | inactive: -0.138 | inactive: 0.128 | inactive: -0.012 | inactive: -0.14 | inactive: -0.083 | inactive: -0.101 | inactive: 0.087 | inactive: -0.053 | inactive: 0.019 | inactive: -0.605 | inactive: -0.177 | inactive: -0.125 | inactive: -0.146 | inactive: 0.131 | inactive: 0.036 | inactive: -0.025 | inactive: 0.006 | inactive: -0.008 |
| ABHD14B (UniProt Q96IU4) | inactive: -0.029 | inactive: 0.039 | inactive: 0.004 | inactive: -0.016 | inactive: -0.027 | inactive: -0.028 | inactive: 0.061 | inactive: 0.024 | inactive: -0.079 | inactive: 0.042 | inactive: 0.021 | inactive: -0.031 | inactive: -0.036 | inactive: -0.012 | inactive: -0.014 | inactive: 0.028 | inactive: 0.062 | inactive: -0.006 | inactive: -0.064 | inactive: -0.016 |
| ABHD10 (UniProt Q9NUJ1) | inactive: 0.015 | inactive: 0.027 | inactive: -0.005 | inactive: 0.007 | inactive: 0.106 | inactive: 0.015 | inactive: -0.008 | inactive: -0.019 | inactive: 0.011 | inactive: 0.021 | inactive: 0.02 | inactive: 0.093 | inactive: -0.008 | inactive: 0 | inactive: 0.008 | inactive: -0.022 | inactive: 0.063 | inactive: 0.056 | inactive: -0.038 | inactive: -0.033 |
| ACO2 (UniProt Q99798) | inactive: 0.021 | inactive: -0.025 | inactive: -0.02 | inactive: 0.013 | inactive: -0.118 | inactive: -0.013 | inactive: 0.043 | inactive: -0.016 | inactive: -0.064 | active: -0.522 | inactive: 0.017 | inactive: -0.04 | inactive: -0.142 | inactive: -0.012 | inactive: 0.039 | inactive: 0.023 | inactive: 0.057 | inactive: 0.001 | inactive: -0.058 | inactive: -0.042 |
| ACOT8 (UniProt O14734) | inactive: -0.039 | inactive: -0.013 | inactive: 0.001 | inactive: -0.003 | inactive: 0.053 | inactive: -0.009 | inactive: 0.018 | inactive: -0.029 | inactive: -0.012 | inactive: 0.067 | inactive: 0.056 | inactive: -0.039 | inactive: -0.009 | inactive: 0.033 | inactive: -0.054 | inactive: -0.03 | inactive: 0.045 | inactive: 0.07 | inactive: 0.067 | inactive: -0.039 |
| ADAM9 (UniProt Q13443) | inactive: -0.086 | inactive: -0.127 | inactive: -0.03 | inactive: -0.054 | inactive: 0.011 | inactive: 0.017 | inactive: 0.112 | inactive: 0.053 | inactive: 0.028 | inactive: 0.004 | inactive: 0.01 | inactive: 0.046 | inactive: 0.034 | inactive: 0.065 | inactive: -0.062 | inactive: -0.078 | inactive: -0.025 | inactive: 0.023 | inactive: 0.012 | inactive: -0.014 |
| ACACA isoform 4 (UniProt Q13085) | inactive: 0.085 | inactive: 0.05 | inactive: -0.07 | inactive: -0.098 | inactive: -0.086 | inactive: -0.048 | inactive: -0.075 | inactive: -0.08 | inactive: -0.134 | inactive: -0.118 | inactive: 0.003 | inactive: -0.068 | inactive: 0.009 | inactive: 0.022 | inactive: 0.042 | inactive: 0.087 | inactive: 0.044 | inactive: 0.121 | inactive: 0.198 | inactive: -0.1 |
| ABLIM1 (UniProt O14639) | inactive: 0.386 | inactive: 0.763 | inactive: 0.005 | inactive: -0.089 | inactive: -0.117 | inactive: -0.07 | inactive: 0.477 | inactive: -0.061 | inactive: -0.049 | inactive: -0.198 | inactive: 0.031 | inactive: -0.031 | inactive: 0.075 | inactive: -0.04 | inactive: 0.081 | inactive: -0.072 | inactive: -0.041 | inactive: 0.315 | inactive: 0.008 | inactive: -0.023 |
| ADAMTSL4 isoform 3 (UniProt Q6UY14) | inactive: 0.106 | inactive: 0.148 | inactive: 0.115 | inactive: -0.001 | inactive: 0.059 | inactive: 0 | inactive: -0.058 | inactive: -0.154 | inactive: 0.121 | inactive: -0.081 | inactive: -0.115 | inactive: -0.019 | inactive: 0.002 | inactive: 0.089 | inactive: 0.007 | inactive: -0.024 | inactive: 0.035 | inactive: 0.09 | inactive: 0.103 | inactive: -0.061 |
| ACTR10 (UniProt Q9NZ32) | inactive: -0.033 | inactive: -0.108 | inactive: -0.002 | inactive: -0.011 | inactive: -0.018 | inactive: -0.015 | inactive: -0.105 | inactive: -0.032 | inactive: 0.028 | inactive: 0.066 | inactive: 0.01 | inactive: -0.003 | inactive: -0.013 | inactive: -0.018 | inactive: -0.019 | inactive: -0.04 | inactive: 0.031 | inactive: 0.065 | inactive: -0.002 | inactive: 0.011 |
| ACTA1 (UniProt P68133) | inactive: -0.067 | inactive: -0.028 | inactive: 0.009 | inactive: -0.023 | inactive: 0.072 | inactive: -0.002 | inactive: -0.022 | inactive: 0.007 | inactive: 0.002 | inactive: 0.016 | inactive: -0.002 | inactive: 0.006 | inactive: 0.03 | inactive: 0.026 | inactive: -0.029 | inactive: -0.023 | inactive: -0.03 | inactive: -0.006 | inactive: -0.074 | inactive: 0.018 |
| ABCA7 (UniProt Q8IZY2) | inactive: -0.15 | inactive: -0.196 | inactive: -0.17 | inactive: -0.153 | – | inactive: 0.17 | inactive: -0.096 | – | – | – | inactive: -0.112 | inactive: -0.245 | – | – | inactive: -0.157 | inactive: -0.095 | inactive: 0.085 | – | inactive: 0.034 | inactive: -0.144 |
| ACAD8 (UniProt Q9UKU7) | inactive: 0.092 | inactive: -0.031 | inactive: -0.029 | inactive: -0.064 | inactive: 0.02 | inactive: -0.09 | inactive: 0.015 | inactive: 0.073 | inactive: 0.034 | inactive: -0.017 | inactive: -0.036 | inactive: -0.049 | inactive: -0.016 | inactive: 0.011 | inactive: -0.064 | inactive: 0 | inactive: 0.019 | inactive: -0.017 | inactive: -0.126 | inactive: 0.012 |
| ACTN1 (UniProt H9KV75) | inactive: 0.15 | – | inactive: -0.165 | inactive: 0.073 | inactive: 0.019 | inactive: -0.092 | inactive: -0.069 | – | inactive: -0.295 | inactive: 0.199 | inactive: 0.19 | inactive: 0.051 | inactive: -0.292 | inactive: 0.018 | inactive: -0.078 | – | inactive: 0.089 | inactive: -0.036 | inactive: 0.119 | inactive: 0.226 |
| AAK1, A0A096LP25 | inactive: -0.058 | inactive: -0.017 | inactive: -0.084 | inactive: 0.104 | inactive: -0.18 | inactive: 0.028 | inactive: -0.05 | inactive: -0.079 | – | inactive: -0.124 | inactive: 0.318 | inactive: 0.048 | inactive: 0.048 | inactive: -0.085 | inactive: -0.061 | inactive: -0.007 | inactive: -0.014 | inactive: -0.072 | inactive: -0.159 | inactive: 0.142 |
| ACP2 (UniProt P11117) | inactive: -0.107 | inactive: -0.06 | inactive: 0.002 | inactive: -0.006 | inactive: 0 | inactive: 0.02 | inactive: 0.015 | inactive: 0.03 | inactive: 0.061 | inactive: -0.008 | inactive: -0.014 | inactive: 0.002 | inactive: -0.124 | inactive: 0.018 | inactive: -0.01 | inactive: -0.003 | inactive: 0.05 | inactive: 0.069 | inactive: -0.052 | inactive: -0.102 |
| ACTB, A0A2R8YEA7 | inactive: -0.02 | – | inactive: 0.024 | inactive: -0.371 | inactive: 0.087 | inactive: 0.044 | inactive: -0.552 | inactive: -0.069 | – | inactive: 0.13 | inactive: -0.284 | inactive: 0.141 | inactive: 0.036 | inactive: 0.168 | inactive: -0.52 | – | inactive: 0.216 | inactive: -0.114 | – | inactive: 0.036 |

A different layout for some results above:
Target	log2 fold change [1]	log2 fold change [2]	log2 fold change [3]	log2 fold change [4]	log2 fold change [5]	log2 fold change [6]	log2 fold change [7]	log2 fold change [8]	log2 fold change [9]	log2 fold change [10]	log2 fold change [11]	log2 fold change [12]	log2 fold change [13]	log2 fold change [14]	log2 fold change [15]	log2 fold change [16]	log2 fold change [17]	log2 fold change [18]	log2 fold change [19]	log2 fold change [20]
ABHD14B (UniProt Q96IU4)	inactive: -0.029	inactive: 0.039	inactive: 0.004	inactive: -0.016	inactive: -0.027	inactive: -0.028	inactive: 0.061	inactive: 0.024	inactive: -0.079	inactive: 0.042	inactive: 0.021	inactive: -0.031	inactive: -0.036	inactive: -0.012	inactive: -0.014	inactive: 0.028	inactive: 0.062	inactive: -0.006	inactive: -0.064	inactive: -0.016
ABHD10 (UniProt Q9NUJ1)	inactive: 0.015	inactive: 0.027	inactive: -0.005	inactive: 0.007	inactive: 0.106	inactive: 0.015	inactive: -0.008	inactive: -0.019	inactive: 0.011	inactive: 0.021	inactive: 0.02	inactive: 0.093	inactive: -0.008	inactive: 0	inactive: 0.008	inactive: -0.022	inactive: 0.063	inactive: 0.056	inactive: -0.038	inactive: -0.033
